Data as given in PubChem BioAssay AID652259 (Drosophila RNAi Screening Center, 2013)
In all, the deposit lists about 22,000 reagents; this is a random part of those with a known target gene and a result. In the full data, 233 (1.1%) were called active. 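Light values are raw, unnormalised plate reads; the ratio scores behind the reporter calls were not deposited.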 A plus sign joins genes that one reagent is predicted to hit. The record does not give: the amount of reagent, the time to read-out, the dose of the treatment.

Assay: 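Genome-wide hunt for genes that control Wingless pathway activity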 (primary screen)
System: Drosophila clone 8 imaginal disc epithelial cells
Knock-down reagent: long dsRNA against Drosophila genes
Challenge: pathway stimulated by co-transfected Wingless expression plasmid
Measured: 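Dual luciferase reads per well after Wingless plasmid stimulation: reporter firefly light and Renilla control light; activity is firefly divided by Renilla, a ratio not deposited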
Direction: firefly reporter light: higher = more Wg reporter light, before normalisation; Renilla control light: higher = more transfected or surviving cells
Call rule: 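a knock-down is a candidate when at least two out of four statistical tests show it departing from its plate mean; one test alone signals a weak candidate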
Calls: active = candidate regulator (raises or lowers reporter); inactive = not a candidate

target | dsRNA | reporter change call, replicate 1 | firefly reporter light, replicate 1 | firefly reporter light, replicate 2 | Renilla control light, replicate 1 | Renilla control light, replicate 2 | activity call
sowah (sosondowah) | DRSC09186 | – | 3444 | – | 1482 | – | inactive
sowah (sosondowah) | DRSC09758 | – | 4039 | – | 1795 | – | inactive
CG10137 | DRSC02014 | – | 7300 | – | 1869 | – | inactive
CG10137 | DRSC02015 | – | 2601 | 3920 | 464 | 1931 | inactive
Klp64D (Kinesin-like protein at 64D) | DRSC11204 | – | 2064 | 9747 | 1488 | 4372 | inactive
Cpr49Ah (Cuticular protein 49Ah) | DRSC07204 | – | 4700 | – | 2352 | – | inactive
lark | DRSC11362 | – | 7257 | – | 2042 | – | inactive
RpS26 (Ribosomal protein S26) | DRSC03420 | – | 2001 | 3312 | 845 | 1671 | inactive
CG11679 | DRSC19415 | – | 3688 | 5697 | 1194 | 1584 | inactive
CG13887 | DRSC08357 | – | 15744 | – | 4242 | – | inactive
CG17803 | DRSC15275 | – | 20817 | – | 4405 | – | inactive
CG17803 | DRSC22811 | – | 6.44e5 | 7.31e5 | 2.92e5 | 3.50e5 | inactive
CG12362 | DRSC09884 | – | 6164 | – | 3497 | – | inactive
CG11123 | DRSC06040 | – | 4123 | 14179 | 816 | 1312 | inactive
Dnai2 (dynein, axonemal, intermediate chain 2) | DRSC10575 | – | 6339 | – | 2196 | – | inactive
CG10086 | DRSC14183 | – | 10936 | – | 2454 | – | inactive
Cdc50 (Cell division cycle 50) | DRSC20224 | – | 15024 | – | 7234 | – | inactive
Gga | DRSC18260 | – | 1522 | 4208 | 660 | 1655 | inactive
CG33639 | DRSC19966 | – | 27592 | – | 12217 | – | inactive
CG33639 | DRSC22820 | – | 5.11e5 | 5.32e5 | 1.50e5 | 1.76e5 | inactive
COX6CL (Cytochrome c oxidase subunit 6C-like) | DRSC00895 | – | 23079 | – | 10100 | – | inactive
Nil (Nilkantha) | DRSC15953 | – | 24312 | – | 21606 | – | inactive
oc (ocelliless) | DRSC18808 | – | 20890 | – | 9267 | – | inactive
Dus2 (Dihydrouridine synthase 2) | DRSC19591 | – | 2288 | 6336 | 1008 | 2613 | inactive
CG13309 | DRSC09980 | – | 1402 | 4548 | 1148 | 2348 | inactive
dsb (debris buster) | DRSC08407 | – | 6259 | – | 994 | – | inactive
dsb (debris buster) | DRSC08542 | – | 7941 | – | 2874 | – | inactive
CG15283 | DRSC01980 | – | 2903 | 8429 | 1218 | 3557 | inactive
icln | DRSC07630 | – | 5403 | – | 1882 | – | inactive
CNT1 (Concentrative nucleoside transporter 1) | DRSC06082 | – | 2517 | 8272 | 939 | 3120 | inactive
mtm (myotubularin) | DRSC03576 | – | 11316 | – | 4835 | – | inactive
E2f1 (E2F transcription factor 1) | DRSC16655 | Wg reporter activity lowered | 38960 | – | 9274 | – | inactive
Hmgcl (3-Hydroxymethyl-3-methylglutaryl-CoA lyase) | DRSC02051 | – | 2017 | 5381 | 972 | 1994 | inactive
Kpc2 (Kip1 ubiquitination-promoting complex subunit 2) | DRSC07635 | – | 5680 | – | 1917 | – | inactive
serp (serpentine) | DRSC11035 | – | 16225 | – | 5216 | – | inactive
serp (serpentine) | DRSC11036 | – | 12628 | – | 4186 | – | inactive
Gar1 (Gar1 ribonucleoprotein) | DRSC04441 | – | 2166 | 9585 | 476 | 2787 | inactive
CG15482 | DRSC02492 | – | 2283 | 5099 | 1170 | 2861 | inactive
Csgalnact (Chondroitin sulfate N-acetylgalactosaminyltransferase) | DRSC06228 | – | 1603 | 6569 | 624 | 2432 | inactive
bai (baiser) | DRSC14388 | – | 15529 | – | 14643 | – | inactive
CG30114 | DRSC05707 | – | 20474 | – | 9597 | – | inactive
CG8008 | DRSC07053 | – | 7483 | – | 1234 | – | inactive
rad50 | DRSC04523 | – | 3722 | – | 1046 | – | inactive
CG6724 | DRSC02983 | – | 2466 | 6644 | 1541 | 4388 | inactive
CG17666 | DRSC10276 | – | 4811 | – | 2128 | – | inactive
dnc (dunce) | DRSC17758 | – | 18235 | – | 7296 | – | inactive
dnc (dunce) | DRSC17759 | – | 18028 | – | 9931 | – | inactive
dnc (dunce) | DRSC17911 | – | 15293 | – | 11079 | – | inactive
dnc (dunce) | DRSC18763 | – | 26650 | – | 18322 | – | inactive
dnc (dunce) | DRSC18764 | – | 20739 | – | 16900 | – | inactive
Pburs (Partner of Bursicon) | DRSC02483 | – | 3200 | 9234 | 1448 | 3355 | inactive
CG10470 | DRSC02061 | – | 1546 | 5128 | 598 | 2405 | inactive
CG14984 | DRSC08442 | – | 7621 | – | 2733 | – | inactive
CG6290 | DRSC19979 | – | 4156 | 9786 | 1207 | 3754 | inactive
CG4041 | DRSC18339 | – | 22120 | – | 10397 | – | inactive
slp2 (sloppy paired 2) | DRSC00836 | – | 3051 | 8576 | 941 | 3344 | inactive
tHMG2 (testis-enriched HMG-box-containing protein 2) | DRSC16182 | – | 37712 | – | 8420 | – | inactive
CG33757 | DRSC05159 | – | 15625 | – | 7136 | – | inactive
CG5715 | DRSC15860 | – | 11418 | – | 12679 | – | inactive
CG10514 | DRSC14249 | – | 29185 | – | 18313 | – | inactive
CG6231 | DRSC15997 | – | 15062 | – | 2160 | – | inactive
CG31021 | DRSC22319 | – | 3.71e5 | 3.65e5 | 1.49e5 | 1.53e5 | inactive
Rme-8 (Receptor mediated endocytosis 8) | DRSC07054 | – | 13765 | – | 2032 | – | inactive
CG8492 | DRSC10984 | – | 2106 | 11233 | 1331 | 5282 | inactive
CG8492 | DRSC21804 | – | 5.33e5 | 4.23e5 | 2.99e5 | 1.77e5 | inactive
CG14273 | DRSC02377 | – | 3322 | 7899 | 1116 | 4464 | inactive
S6KL (S6 Kinase Like) | DRSC19349 | – | 4764 | 9573 | 1812 | 4393 | inactive
S6KL (S6 Kinase Like) | DRSC21578 | – | 8.09e5 | 8.61e5 | 3.48e5 | 3.42e5 | inactive
CG31955 | DRSC00285 | – | 3496 | 8048 | 1232 | 3498 | inactive
nenya | DRSC13838 | – | 3399 | – | 1440 | – | inactive
Grl62c (Gustatory receptor-like 62c) | DRSC07964 | – | 2331 | – | 1316 | – | inactive
Hs6st (Heparan sulfate 6-O-sulfotransferase) | DRSC14348 | – | 17562 | – | 4546 | – | inactive
Hs6st (Heparan sulfate 6-O-sulfotransferase) | DRSC15182 | – | 27330 | – | 6749 | – | inactive
Hs6st (Heparan sulfate 6-O-sulfotransferase) | DRSC15581 | – | 28777 | – | 6642 | – | inactive
Hs6st (Heparan sulfate 6-O-sulfotransferase) | DRSC21732 | – | 7.53e5 | 7.29e5 | 4.34e5 | 2.91e5 | inactive
CG12546 + CG14452 | DRSC11709 | – | 18144 | – | 4004 | – | inactive
CG42271 | DRSC19809 | – | 2619 | 5265 | 1312 | 2310 | inactive
CG42271 | DRSC22894 | – | 5.43e5 | 5.27e5 | 2.54e5 | 2.43e5 | inactive
st (scarlet) | DRSC11399 | – | 4168 | – | 1250 | – | inactive
Eglp4 (Entomoglyceroporin 4) | DRSC04438 | – | 3024 | 5792 | 819 | 2610 | inactive
loqs (loquacious) | DRSC02997 | – | 2664 | 5316 | 1260 | 2583 | inactive
CG4297 | DRSC00651 | – | 2781 | 7186 | 1367 | 2912 | inactive
boil (boilerman) | DRSC17872 | – | 22842 | – | 9201 | – | inactive
CG10801 | DRSC17761 | – | 12090 | – | 8598 | – | inactive
CG42650 | DRSC12462 | – | 3255 | – | 1528 | – | inactive
Hn (Henna) | DRSC11184 | – | 5211 | – | 1664 | – | inactive
CG11777 | DRSC06081 | – | 3817 | 6549 | 698 | 3067 | inactive
hoka | DRSC08313 | – | 1255 | 6480 | 1526 | 3300 | inactive
ETHR | DRSC15915 | – | 37652 | – | 6720 | – | inactive
CG16727 | DRSC15139 | – | 21408 | – | 3565 | – | inactive
CG31606 | DRSC01012 | – | 18900 | – | 8528 | – | inactive
Fa2h (Fatty acid 2-hydroxylase) | DRSC06608 | – | 2982 | 4566 | 708 | 2118 | inactive
Fa2h (Fatty acid 2-hydroxylase) | DRSC06609 | – | 3521 | 6423 | 678 | 2308 | inactive
